Consider 48 compounds from PMC12040169 (PLOS Biology, 2025).

The structures appear in SMILES notation. Some of the results follow.

For this experiment, the system named is T1, CTL2-GFP (C. trachomatis L2/434/Bu, GFP-expressing).
T1 construct: L2/434/Bu, GFP-expressing
More on the design: species or system HeLa; Intracellular C. trachomatis growth in HeLa cells, bulk GFP fluorescence relative to DMSO. The settings on record: bulk GFP, single well; 28.5 h, 10 µM; inhibitor.
For `c1ccc2c(c1)nnn2CNCn1nnc2ccccc21` [CBK261114], the “% of control remaining” value was 100%.
As to `Cc1c(Cc2ccccc2)c(=O)oc2c(CN3CCCC(C)C3)c(O)ccc12` (stereo not drawn) [CBK266995], the “% of control remaining” value is recorded as 142.782%.
The result for `Cc1ccc([C@]2(O)CC[C@H]3CN(Cc4cccc(F)c4F)C[C@H]32)nc1` [CBK283088] reads 128.837%.
For `O=C(c1ccccc1)N1C[C@@H](c2ccsc2)[C@@H]2CN(Cc3ccccc3F)CC[C@@H]21` [CBK285612], the “% of control remaining” value worked out at 54.4482%.
The figure for `Cc1cc(C(F)F)n2nc(C(=O)Nc3cccc(S(=O)(=O)N4CCOCC4)c3)nc2n1` [CBK266198] is 124.31%; for `CNC(=O)C1(Cc2ccc(-c3cccc(C)c3)cc2)CCN(C(=O)CC(C)C)CC1` [CBK285787] it is 99.96%.
The figure for `CC(=O)Nc1ccc(S(=O)(=O)N2CCN(c3ccc([N+](=O)[O-])c(NC4C5CC6CC(C5)CC4C6)c3)CC2)cc1` (stereo not drawn) [CBK268802] is 140.927%.
The figure for `O=C(O)CCc1ccc(-c2cccs2)n1NC(=O)c1sc2ccccc2c1Cl` [CBK264782] is 113.787%; for `COc1ccccc1N1CCN(/N=C\c2ccccc2OCC(=O)O)CC1` [CBK263173C] it is 100%; for `FC(F)(F)c1ccnc(Sc2cccc(Cl)c2)n1` [CBK115247] it is 74.7763%.
For `CC(=O)Nc1ccc(-c2ccc(C(=O)N3CCC(Sc4ccccc4)CC3)cn2)cc1` [CBK160188], the “% of control remaining” value is given as 107.942%.
For the compound `CCn1cc(C(=O)N2C[C@H](C(=O)OC)[C@@H](c3ccc(F)cc3)C2)cn1` [CBK283719], the “% of control remaining” value turned out to be 121.209%.
In the case of `O=C(Cn1c(NCCO)nc2ccccc21)c1ccco1` [CBK264127B], the “% of control remaining” value is on record as 117.574%.
The figure for `COc1ccccc1C1(O)CCCC2CN(C(C)=O)CC21` (stereo not drawn) [CBK283134] is 88.0574%; for `CCOC(=O)c1cccnc1-c1cncnc1` [CBK149236] it is 92.4861%.
The result for `CC(=O)c1c(C)[nH]c(C(=O)N2CCN(C3CCN(C)CC3)CC2)c1C` [CBK149098] reads 94.5146%; that for `COc1ccc(Cl)cc1S(=O)(=O)N1CCCC(C(=O)NCc2ccccn2)C1` (stereo not drawn) [CBK269761], 107.48%.
The figure for `CNC(=O)c1cccnc1N1CCN(CCCC(c2ccc(F)cc2)c2ccc(F)cc2)CC1` [CBK025309C] is 109.932%; for `O=c1[nH]c2cc(Cl)c(Br)nc2[nH]1` [CBK026531] it is 122.731%.
With `O=C(NC1CCOCC1)c1n[nH]c2c1CCC2` [CBK174626], the “% of control remaining” value was 97.6887%.
Regarding `CCCS(=O)(=O)N1CCN(C(=O)c2cccnc2)CC1` [CBK264239], the “% of control remaining” value worked out at 140.147%.
For `CN(C(=O)CN1CCN(c2cc(-c3cccc([N+](=O)[O-])c3)ncn2)CC1)c1ccccc1` [CBK091137], the “% of control remaining” value is on record as 123.319%.
Consider `CCn1c2ccccc2c2cc(/C=N/N3CCN(c4ccccc4OC)CC3)ccc21` [CBK101168], for which the “% of control remaining” value was determined as 100%.
In the case of `COc1ccc([C@@]23CC[C@@H](NC(=O)Nc4ccc(F)c(F)c4)C[C@@H]2N(C)CC3)cc1C#N` [CBK067952T], the “% of control remaining” value was determined as 63.7796%.
The figure for `O=C(O)C1C2CC(c3ccccc3)C(C2)C1C(=O)O` (stereo not drawn) [CBK287147] is 94.1362%.
Turning to `CC1CC(=O)c2cn/c(=N\c3ccccc3)[nH]c2C1` (stereo not drawn) [CBK287884], the “% of control remaining” value was determined as 109.929%.
The result for `CCN(CC)C(=O)c1cn(CCC#N)nc1-c1cccc(OC)c1` [CBK305941] reads 128.207%; that for `CCC1CCC2(CC1)NC(=O)N(Cc1cc(-c3ccccc3)on1)C2=O` (stereo not drawn) [CBK294977], 88.4833%.
The figure for `CC1(C)Cc2c(ccc3ccccc23)C(CCN2CCCCC2)=N1` [CBK261746] is 94.4919%; for `Cn1nccc1CNc1ncn(CC(=O)N2CCCCCC2)n1` [CBK306454] it is 118.956%.
The figure for `OCc1ccc(CN2Cc3nc[nH]c3C[C@H]2c2nc(Cc3ccccc3)no2)o1` [CBK288955] is 119.734%.
With `CC1CCCCN1S(=O)(=O)c1ccc(NC(=O)CCn2cnc3ccccc3c2=O)cc1` (stereo not drawn) [CBK268495], the “% of control remaining” value was determined as 146.682%.
The result for `CCOc1cccc(NC(=O)/C(C#N)=C\c2cc(C)n(-c3cccc(C(=O)O)c3)c2C)c1` [CBK263186] reads 99.5464%; that for `O=C(NCc1ccccn1)c1cnn2c(C(F)(F)F)cc(-c3cccs3)nc12` [CBK268195], 144.852%.
The result for `CCOC(=O)C(NC(=O)c1cc[nH]n1)c1cccc(C)c1C` (stereo not drawn) [CBK304131] reads 98.6223%; that for `Cc1nc2c(c(=O)[nH]1)CC[C@@H]1CN(C(=O)C3CCCCC3)C[C@H]21` [CBK284407], 99.5373%.
The result for `Cn1c2ccccc2c2nnc(SCc3ccc4nonc4c3)nc21` [CBK267515] reads 128.24%; that for `COc1ccccc1Cn1nc2nnc(-c3ccc(F)cc3)c(-c3ccc(F)cc3)n2c1=O` [CBK286184], 94.2951%; that for `Cc1scnc1CN1CCn2nc(C(O)Cc3ccccc3)cc2C1` (stereo not drawn) [CBK307612], 173.995%.
`C/C(=N\N1CCN(Cc2cccc3ccccc23)CC1)c1ccncc1` [CBK263574]: the “% of control remaining” value amounted to 97.1379%.
Regarding `Nc1ncc(-c2ccc(C(=O)N3CCOCC3)cc2)cc1C(=O)Nc1ccncc1` [CBK160202], the “% of control remaining” value was found to be 105.931%.
The figure for `O=C(Nc1cccnc1)c1ccc(NC(=O)C2OCCc3ccccc32)cc1` (stereo not drawn) [CBK269963] is 123.641%.
With `CCC(CNC(=O)c1ccoc1C)N1CCCC1` (stereo not drawn) [CBK304798], the “% of control remaining” value is 102.518%.
`O=C(O)c1ccc2c(c1)C(=O)N(c1ccc(-c3ccc(N4C(=O)c5ccc(C(=O)O)cc5C4=O)cc3)cc1)C2=O` [CBK261187]: the “% of control remaining” value was 112.282%.
The result for `CCc1cc2c(NC(C(=O)O)C(C)C)ncnc2s1` (stereo not drawn) [CBK265349] reads 100.416%; that for `Cc1ccc(NC(=O)NC(=O)C2CCN(CCCc3ccc(F)cc3)CC2)cc1Cl` [CBK035057], 117.834%; that for `CN1CCN(CCC(=O)N/N=C/c2ccccc2O)CC1` [CBK261497], 114.732%.
The figure for `Cc1nc(C2CCN(Cc3cccc(F)c3)CC2)ncc1C(=O)Nc1ccc(F)cc1` [CBK285668] is 103.223%.
